The target of test [1] is T1, Lysosomal-associated membrane protein 1 (LAMP-1) (rat (endogenous in H4IIE)) (UniProt P14562).
T1 sequence: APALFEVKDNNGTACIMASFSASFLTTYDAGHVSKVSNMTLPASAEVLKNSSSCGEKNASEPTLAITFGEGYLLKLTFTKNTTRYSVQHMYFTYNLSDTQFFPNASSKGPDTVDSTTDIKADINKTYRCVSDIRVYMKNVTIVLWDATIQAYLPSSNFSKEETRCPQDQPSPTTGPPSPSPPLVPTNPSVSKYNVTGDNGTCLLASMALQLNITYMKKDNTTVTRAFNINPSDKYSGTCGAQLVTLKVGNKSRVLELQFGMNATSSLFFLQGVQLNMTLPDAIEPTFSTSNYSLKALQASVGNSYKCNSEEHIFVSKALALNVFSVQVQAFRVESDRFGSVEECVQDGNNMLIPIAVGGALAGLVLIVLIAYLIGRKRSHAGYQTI
Kind of test: flow cytometry on cells; H4IIE cells treated overnight ± CTRP3-FLAG (2.5 μg/well) ± polyclonal LAMP1 antibody (10 μg/well); fixed in 4% formaldehyde; rabbit anti-FLAG and fluorochrome-conjugated secondary antibody; MFI and percent positive cells; only the binder purified.

Test [2] has as its target T1, Lysosomal-associated membrane protein 1 (LAMP-1) (rat (endogenous in H4IIE)). The test is described as follows: TriCEPS-based ligand-receptor capture (LRC-TriCEPS) with LC-MS/MS; TriCEPS-coupled CTRP3-FLAG or TriCEPS-coupled insulin (control ligand) added to mildly oxidised (1.5 mM NaIO4) H4IIE rat hepatoma cells, 90 min at 4°C, PBS pH 6.5; captured glycopeptides by LC-MS/MS; CTRP3 against insulin samples; only the binder purified.

Test [3] concerns the target T2, Lysosome membrane protein 2 (LIMP II) (rat (endogenous in H4IIE)) (UniProt P27615).
T2 sequence: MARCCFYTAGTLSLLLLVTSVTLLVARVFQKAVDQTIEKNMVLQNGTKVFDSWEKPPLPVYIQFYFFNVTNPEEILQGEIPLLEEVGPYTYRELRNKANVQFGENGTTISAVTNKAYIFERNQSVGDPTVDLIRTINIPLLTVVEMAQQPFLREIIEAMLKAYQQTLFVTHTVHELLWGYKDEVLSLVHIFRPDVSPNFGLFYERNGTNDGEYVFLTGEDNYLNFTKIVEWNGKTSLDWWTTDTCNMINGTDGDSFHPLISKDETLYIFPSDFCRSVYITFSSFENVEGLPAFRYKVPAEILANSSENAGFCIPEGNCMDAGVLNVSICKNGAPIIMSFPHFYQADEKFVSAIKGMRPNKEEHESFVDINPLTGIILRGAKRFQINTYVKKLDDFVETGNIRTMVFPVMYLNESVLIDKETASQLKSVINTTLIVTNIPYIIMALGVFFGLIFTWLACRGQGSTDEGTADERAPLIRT
The description is as above.

For test [4], the target named is T3, C-terminal FLAG-Tagged mouse CTRP3 (C1q TNF Related Protein 3) (mouse) (UniProt Q9ES30).
T3 sequence: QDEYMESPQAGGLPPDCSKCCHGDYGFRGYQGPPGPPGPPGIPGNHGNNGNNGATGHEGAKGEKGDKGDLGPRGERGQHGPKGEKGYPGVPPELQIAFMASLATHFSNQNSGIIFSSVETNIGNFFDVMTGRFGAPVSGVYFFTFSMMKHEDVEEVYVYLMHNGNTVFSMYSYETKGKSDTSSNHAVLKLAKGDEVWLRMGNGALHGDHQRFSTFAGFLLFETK
Kind of test: co-IP; H4IIE cells treated overnight with vehicle, FLAG peptide or recombinant CTRP3-FLAG; non-denaturing lysis buffer (20 mM Tris HCl pH 8, 137 mM NaCl, 10% glycerol, 1% Nonidet P-40, 2 mM EDTA); anti-FLAG affinity gel; immunoblot for LAMP1; only the target purified. Background: In western blotting, separated proteins are transferred to a membrane and probed.

For the next test, the target named is T4, FLAG peptide.
T4 sequence (peptide): DYKDDDDK
The description is as above.

No constants are given. Whether binding was seen depends on the method and setting. For some assays here: Binding seen in cells or lysates may run through a third protein. Some binding calls cover weakened binding; strength is not graded here. Where a sequence is shown, tags or fusion partners need not be part of it.

B1: C-terminal FLAG-Tagged mouse CTRP3 (C1q TNF Related Protein 3) (ligand, UniProt Q9ES30 23-246)
chain: QDEYMESPQAGGLPPDCSKCCHGDYGFRGYQGPPGPPGPPGIPGNHGNNGNNGATGHEGAKGEKGDKGDLGPRGERGQHGPKGEKGYPGVPPELQIAFMASLATHFSNQNSGIIFSSVETNIGNFFDVMTGRFGAPVSGVYFFTFSMMKHEDVEEVYVYLMHNGNTVFSMYSYETKGKSDTSSNHAVLKLAKGDEVWLRMGNGALHGDHQRFSTFAGFLLFETK
With B1, the binding result in test [1], in test [2] and in test [3] was “binds” in each case.

B2: Lysosomal-associated membrane protein 1 (LAMP-1) (receptor, UniProt P14562 22-407)
chain: APALFEVKDNNGTACIMASFSASFLTTYDAGHVSKVSNMTLPASAEVLKNSSSCGEKNASEPTLAITFGEGYLLKLTFTKNTTRYSVQHMYFTYNLSDTQFFPNASSKGPDTVDSTTDIKADINKTYRCVSDIRVYMKNVTIVLWDATIQAYLPSSNFSKEETRCPQDQPSPTTGPPSPSPPLVPTNPSVSKYNVTGDNGTCLLASMALQLNITYMKKDNTTVTRAFNINPSDKYSGTCGAQLVTLKVGNKSRVLELQFGMNATSSLFFLQGVQLNMTLPDAIEPTFSTSNYSLKALQASVGNSYKCNSEEHIFVSKALALNVFSVQVQAFRVESDRFGSVEECVQDGNNMLIPIAVGGALAGLVLIVLIAYLIGRKRSHAGYQTI
Consider B2, for which the binding entry is listed as “binds” in test [4] and “no binding” with FLAG peptide.

Source of the values: publication PMC5058508.
